Source: PubChem BioAssay AID504444 (National Center for Advancing Translational Sciences (NCATS), 2011)
Several values for one entry are separate records, joined by “and”; a condition that tells them apart may be missing. Equal entries are not always repeated. The campaign covered roughly 360,000 compounds. About 7,500 (2.1%) were called active. This list was built around the results that the source calls inconclusive (neither active nor inactive); the mix of calls is not that of the screen. Calls follow the shape of the dose curve; as a rule, active = well fitted inhibition curve with a large enough effect; inconclusive = small, poorly fitted or top-dose-only effect, or effect the other way; inactive = flat fitted curve, though single readings scatter. Potencies beside an inconclusive call are fits to weak or partial responses and may not hold up.

assay: Nrf2 qHTS screen for inhibitors; conditions: A549 ARE-Fluc reporter, luciferase luminescence, 18-24 h; series mostly up to 46 µM; also: nearly all actives have a fitted effect of over 60% in size
In short: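 Reporter: ARE-Fluc in A549. Exposure: 18-24 h, 37 °C, 5% CO2, 5% FBS OPTI-MEM. Readouts: fluorescent cytotoxicity (CellTiter-Fluor), then luminescent Nrf2 signal after BugLite.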
Potency is read from the fitted curve at half-maximal effect.

SMILES	Potency
CCNC(=O)C(=O)Nc1ccc(OC)c(Cl)c1	inconclusive: 16.4 µM [activator, single point]
NC(=O)c1ccccc1NS(=O)(=O)Cc1ccc(Cl)cc1	inactive
COc1cc2c(cc1OC)CN(C(=O)/C=C/c1ccccc1[N+](=O)[O-])CC2	inconclusive: 16.4 µM [activator, partial curve]
COc1ccc(NS(=O)(=O)c2ccc(C(=O)N3CCN(Cc4ccccc4)CC3)cc2)cc1	active: 20.6 µM
Cc1ccc(Cl)cc1N1CCN(C(=O)C2CCN(S(=O)(=O)c3c(C)nn(C)c3C)CC2)CC1	inconclusive: 18.4 µM [falling, single point]
Cc1c(Cl)cccc1NC(=S)NCc1ccco1	inconclusive: 14.6 µM [falling, partial curve, poor fit]
Cc1cc(NC(=O)c2ccc(Br)o2)cc(-c2nc3ccccc3o2)c1O	inconclusive: 6.51 µM [activator, partial curve, poor fit]
Cc1ccc(OCCNC(=O)c2cc(=O)[nH]c3ccccc23)cc1	inconclusive: 4.11 µM [falling, partial curve, poor fit]
COc1ccc(NC(=O)c2cccc(OS(=O)(=O)N(C)C)c2)cc1	inconclusive: 0.082 µM [activator, full curve, poor fit]
O=C(c1ccccc1F)N1CCN(c2ccc([N+](=O)[O-])c(NCc3cccnc3)c2)CC1	inconclusive: 20.6 µM [falling, partial curve, poor fit]
CCc1cc2c(SCC#N)ncnc2s1	inconclusive: 29.1 µM [falling, single point]
CCCNC(=O)c1ccc(N2CCC3(CC2)CC(c2ccccc2)=NO3)c(NC(=O)Cc2ccc(F)cc2)c1	inactive
CCOC(=O)c1nc(C)nc(Sc2n[nH]c(-c3cc(Cl)cc(Cl)c3)n2)c1C	inconclusive: 29.1 µM [activator, single point]
CCc1ccc(C(=O)c2cn(CC(=O)Nc3ccc(F)c(F)c3)c3cc(OC)c(OC)cc3c2=O)cc1	inconclusive: 29.1 µM [falling, single point]
CCn1c(=O)c(CCC(=O)NCC2CCCO2)c(C)c2c(C)nn(-c3ccccc3)c21 (stereo not given)	inconclusive: 25.9 µM [falling, partial curve, poor fit]
Cc1[nH]c2ccccc2c1C(=O)C(=O)N1c2ccccc2CC1C (stereo not given)	inconclusive: 16.4 µM [falling, single point]
Cc1ccc(NC(=S)Nc2cccc3ccccc23)cc1F	inconclusive: 10.3 µM [activator, partial curve]
Cc1cc(C)c(COCc2cc(/C=N/O)c(C)cc2C)cc1/C=N/O	inconclusive: 29.1 µM [falling, single point]
Cc1c2ccccc2nc2c(F)c(N(C)C)c(F)c(F)c12	inconclusive: 25.9 µM [activator, single point]
CCOC(=O)c1cnc(-c2ccccc2)nc1N(C)C	inconclusive: 20.6 µM [activator, partial curve]
C/C(=N\NC(=O)c1nn(C)cc1Br)c1cccc(NC(=O)C2CCCC2)c1	inconclusive: 7.31 µM [falling, full curve, poor fit]
Cc1ncoc1C(=O)N1CCc2c([nH]c3ccccc23)C1C1CCCCC1 (stereo not given)	inconclusive: 32.6 µM [activator, single point]

Filtered by structure, the entries above containing a carbonyl joined to an NH by a bond outside any ring.
SMILES	Potency
CCNC(=O)C(=O)Nc1ccc(OC)c(Cl)c1	inconclusive: 16.4 µM [activator, single point]
NC(=O)c1ccccc1NS(=O)(=O)Cc1ccc(Cl)cc1	inactive
Cc1cc(NC(=O)c2ccc(Br)o2)cc(-c2nc3ccccc3o2)c1O	inconclusive: 6.51 µM [activator, partial curve, poor fit]
Cc1ccc(OCCNC(=O)c2cc(=O)[nH]c3ccccc23)cc1	inconclusive: 4.11 µM [falling, partial curve, poor fit]
COc1ccc(NC(=O)c2cccc(OS(=O)(=O)N(C)C)c2)cc1	inconclusive: 0.082 µM [activator, full curve, poor fit]
CCCNC(=O)c1ccc(N2CCC3(CC2)CC(c2ccccc2)=NO3)c(NC(=O)Cc2ccc(F)cc2)c1	inactive
CCc1ccc(C(=O)c2cn(CC(=O)Nc3ccc(F)c(F)c3)c3cc(OC)c(OC)cc3c2=O)cc1	inconclusive: 29.1 µM [falling, single point]
CCn1c(=O)c(CCC(=O)NCC2CCCO2)c(C)c2c(C)nn(-c3ccccc3)c21 (stereo not given)	inconclusive: 25.9 µM [falling, partial curve, poor fit]
C/C(=N\NC(=O)c1nn(C)cc1Br)c1cccc(NC(=O)C2CCCC2)c1	inconclusive: 7.31 µM [falling, full curve, poor fit]

A draw from above in order of number of heavy atoms, largest number first.
SMILES	Potency
COc1ccc(NS(=O)(=O)c2ccc(C(=O)N3CCN(Cc4ccccc4)CC3)cc2)cc1	active: 20.6 µM
CCn1c(=O)c(CCC(=O)NCC2CCCO2)c(C)c2c(C)nn(-c3ccccc3)c21 (stereo not given)	inconclusive: 25.9 µM [falling, partial curve, poor fit]
Cc1ccc(NC(=S)Nc2cccc3ccccc23)cc1F	inconclusive: 10.3 µM [activator, partial curve]

Additional compounds:

SMILES	Potency
COC(=O)c1ccccc1NC(=O)CN1CCC(C(=O)c2ccc3c(c2)OCCO3)CC1	inconclusive: 18.4 µM [falling, single point]
COC(=O)c1ccc(/C=C/C(=O)O)cc1	inconclusive: 18.4 µM [falling, single point]
CC(C)C(NC(=O)C1CCCCC1)C(=O)Nc1ccc2c(c1)OCCO2 (stereo not given)	inconclusive: 5.17 µM [activator, full curve]
Cc1cc(OCC(=O)Nc2ccc(-c3nc4cc(Cl)ccc4o3)cc2)cc(C)c1Cl	inactive
COc1ccc(NC(=O)CSc2nc3c(c(=O)n2-c2ccccc2OC)SCC3)cc1	inconclusive: 29.1 µM [falling, single point]
O=C(NCc1ccccc1)Nc1cccn(Cc2c(F)cccc2Cl)c1=O	inconclusive: 29.1 µM [falling, single point]
CCN1CCN(CC2CC3C=CC2C3)CC1 (stereo not given)	inconclusive: 29.1 µM [falling, single point]
O=C(c1ccc(Cl)cc1)c1cnc2ccccn12	inconclusive: 8.2 µM [activator, partial curve]
Cc1cc(C)n(-c2ccc(C(=O)Nc3cccc([N+](=O)[O-])c3)cc2)n1	inconclusive: 1.16 µM [falling, full curve]
Cc1ccc(Cn2c(=O)c3cccnc3n(CC(=O)Nc3cccc(C(F)(F)F)c3)c2=O)cc1	active: 5.8 µM
Cc1ncc(N=Nc2ccccc2)c(-c2ccccc2)n1	inactive
CN(c1ccccc1)S(=O)(=O)c1cccc(C(=O)NCc2ccccc2)c1	inconclusive: 29.1 µM [falling, single point]
CCOc1ccc(N(CC(=O)NC2CCCCC2)C(=O)CCC(=O)Nc2nc(C)cs2)cc1	inactive
COc1ccc(-c2noc(N3CCC(C(=O)NC(C)c4ccccc4)CC3)n2)cc1 (stereo not given)	active: 23.1 µM
CCc1cc2c(NCC(=O)O)ncnc2s1	inactive
CCOC(=O)c1c(NC(=O)CSc2nccn2C)sc(C(=O)NC)c1C	inconclusive: 11.6 µM [falling, partial curve]
O=C(CSc1nccc2ccccc12)N1CCN(Cc2ccc3c(c2)OCO3)CC1	inconclusive: 23.1 µM [falling, single point]
Cn1ccnc1SCC(=O)N1CCN(S(=O)(=O)c2ccccc2)CC1	inconclusive: 25.9 µM [activator, single point]
COc1cccc(/C=N/Nc2cc(C)nc(-c3ccccc3O)n2)c1O	active: 14.6 µM
COc1ccc(C(=O)Nc2ccnn2C2CCN(C(=O)c3cccnc3)CC2)cc1	inconclusive: 10.3 µM [activator, partial curve]
CC(C)(C)c1cc(C(=O)Nc2cccnc2)cc(C(=O)Nc2cccnc2)c1	active: 9.2 µM
COc1ccc(CN(C)C(=O)c2ccc(NS(=O)(=O)c3ccc(C)c([N+](=O)[O-])c3)cc2)c(OC)c1OC	inconclusive: 13 µM [falling, partial curve]

SMILES	Potency
Cc1ccc2c(c1)C1CN(C)CCC1N2C(=S)Nc1ccc(Cl)cc1Cl (stereo not given)	inconclusive: 23.1 µM [falling, single point]
Cc1ccc(C(=O)N2CCC(C)CC2)cc1C	inconclusive: 18.4 µM [activator, single point]
COC(=O)C(Cc1ccccc1)NC(=O)C(CC(C)C)NC(=O)OC(C)(C)C (stereo not given)	inactive
O=C(CN1CCC(n2nnc3cc(F)ccc32)CC1)N1CCc2ccccc2C1	inconclusive: 23.1 µM [falling, single point]
O=C(Nc1ccn(Cc2cccc3ccccc23)n1)c1cccnc1	inconclusive: 29.1 µM [falling, single point]
COc1ccccc1CNS(=O)(=O)c1ccc2c(c1)NC(=O)C(C)S2 (stereo not given)	inconclusive: 25.9 µM [falling, partial curve, poor fit]
Cc1nc(SCc2ccc(Cl)c(Cl)c2)ncc1C(=O)O	inconclusive: 23.1 µM [falling, single point]
O=S(=O)(c1ccc(NC(=S)N2CCN(c3ccc(O)cc3)CC2)cc1)N1CCOCC1	active: 11.6 µM
COc1cc2c(OC(C)=O)c3c(c(-c4ccc5c(c4)OCO5)c2cc1OC)C(=O)OC3	inactive and inconclusive: 29.1 µM [activator, single point]
C=C[C@H](CC(C)C)N(Cc1ccccc1)S(=O)(=O)N(Cc1ccccc1)[C@@H](C=C)CC(C)C	inconclusive: 14.6 µM [falling, partial curve, poor fit]
NC(=O)C1CCN(C(=O)c2ccc3nc(N4CCCCC4)sc3c2)CC1	inconclusive: 5.17 µM [activator, partial curve]
CCOC(=O)N1CCN=C1SCc1ccc(C(F)(F)F)cc1	inconclusive: 16.4 µM [falling, single point]
Cc1ccc(C(=O)CSc2nnc3ccccn23)c(C)c1	inconclusive: 11.6 µM [activator, partial curve]
Cc1cccc(C(=O)Nc2nnc(SCC(=O)NC3CC3)s2)c1	inconclusive: 23.1 µM [activator, single point]
COc1ccc2nc(NC(=O)c3cccc(N4C(=O)CCC4=O)c3)sc2c1	inconclusive: 25.9 µM [falling, single point]
COc1ccc(NS(=O)(=O)c2cc3[nH]c(=O)c(=O)[nH]c3cc2C)cc1Cl	inactive
COc1ccc(-c2ccc(C(C)=O)cc2)cc1C1C2C=CCCC2(C)C(=O)N1Cc1ccccc1 (stereo not given)	active: 16.4 µM
Cc1ccccc1OCc1nnc(SCC(=O)Nc2ccc3nc(SCC(=O)NC(C)(C)C)sc3c2)n1C	inconclusive: 23.1 µM [falling, single point]
CCN(C(=O)c1cc2ccccc2oc1=O)c1ccccc1	inconclusive: 2.59 µM [activator, partial curve, poor fit]
CC(=O)c1c(C)[nH]c(C(=O)Nc2nc(-c3ccc(Cl)cc3)cs2)c1C	inconclusive: 29.1 µM [falling, single point]
Cc1nn(C)c(C)c1NC(=O)CCCSc1nc(-c2ccco2)cc(C(F)(F)F)n1	inconclusive: 18.4 µM [falling, partial curve]
